For assay [1], the target named is histone lysine methyltransferase KMT2D (human (endogenous in L363, MM1S and A549)) (UniProt O14686). Description: co-IP; endogenous proteins; L363 cells cultured with or without 100 nM Dex for 30 min, lysed in RIPA buffer (0.1% SDS); anti-KMT2D or control IgG immunoprecipitates immunoblotted for KMT2D and GR.
Assay [2] has the same target. Description: proximity ligation; endogenous proteins in fixed, permeabilised MM1S multiple myeloma cells, with or without 100 nM Dex for 30 min at 37 °C; rabbit anti-KMT2D and mouse anti-GR, Duolink probes; single antibodies as controls.
The target is the same in assay [3]. In words: proximity ligation; endogenous proteins in fixed, permeabilised A549 lung adenocarcinoma cells, with or without 100 nM Dex for 30 min at 37 °C; rabbit anti-KMT2D and mouse anti-GR, Duolink probes; single antibodies as controls.

By UniProt entry, the sequences of proteins in these tests, tags left out.
UniProt O14686: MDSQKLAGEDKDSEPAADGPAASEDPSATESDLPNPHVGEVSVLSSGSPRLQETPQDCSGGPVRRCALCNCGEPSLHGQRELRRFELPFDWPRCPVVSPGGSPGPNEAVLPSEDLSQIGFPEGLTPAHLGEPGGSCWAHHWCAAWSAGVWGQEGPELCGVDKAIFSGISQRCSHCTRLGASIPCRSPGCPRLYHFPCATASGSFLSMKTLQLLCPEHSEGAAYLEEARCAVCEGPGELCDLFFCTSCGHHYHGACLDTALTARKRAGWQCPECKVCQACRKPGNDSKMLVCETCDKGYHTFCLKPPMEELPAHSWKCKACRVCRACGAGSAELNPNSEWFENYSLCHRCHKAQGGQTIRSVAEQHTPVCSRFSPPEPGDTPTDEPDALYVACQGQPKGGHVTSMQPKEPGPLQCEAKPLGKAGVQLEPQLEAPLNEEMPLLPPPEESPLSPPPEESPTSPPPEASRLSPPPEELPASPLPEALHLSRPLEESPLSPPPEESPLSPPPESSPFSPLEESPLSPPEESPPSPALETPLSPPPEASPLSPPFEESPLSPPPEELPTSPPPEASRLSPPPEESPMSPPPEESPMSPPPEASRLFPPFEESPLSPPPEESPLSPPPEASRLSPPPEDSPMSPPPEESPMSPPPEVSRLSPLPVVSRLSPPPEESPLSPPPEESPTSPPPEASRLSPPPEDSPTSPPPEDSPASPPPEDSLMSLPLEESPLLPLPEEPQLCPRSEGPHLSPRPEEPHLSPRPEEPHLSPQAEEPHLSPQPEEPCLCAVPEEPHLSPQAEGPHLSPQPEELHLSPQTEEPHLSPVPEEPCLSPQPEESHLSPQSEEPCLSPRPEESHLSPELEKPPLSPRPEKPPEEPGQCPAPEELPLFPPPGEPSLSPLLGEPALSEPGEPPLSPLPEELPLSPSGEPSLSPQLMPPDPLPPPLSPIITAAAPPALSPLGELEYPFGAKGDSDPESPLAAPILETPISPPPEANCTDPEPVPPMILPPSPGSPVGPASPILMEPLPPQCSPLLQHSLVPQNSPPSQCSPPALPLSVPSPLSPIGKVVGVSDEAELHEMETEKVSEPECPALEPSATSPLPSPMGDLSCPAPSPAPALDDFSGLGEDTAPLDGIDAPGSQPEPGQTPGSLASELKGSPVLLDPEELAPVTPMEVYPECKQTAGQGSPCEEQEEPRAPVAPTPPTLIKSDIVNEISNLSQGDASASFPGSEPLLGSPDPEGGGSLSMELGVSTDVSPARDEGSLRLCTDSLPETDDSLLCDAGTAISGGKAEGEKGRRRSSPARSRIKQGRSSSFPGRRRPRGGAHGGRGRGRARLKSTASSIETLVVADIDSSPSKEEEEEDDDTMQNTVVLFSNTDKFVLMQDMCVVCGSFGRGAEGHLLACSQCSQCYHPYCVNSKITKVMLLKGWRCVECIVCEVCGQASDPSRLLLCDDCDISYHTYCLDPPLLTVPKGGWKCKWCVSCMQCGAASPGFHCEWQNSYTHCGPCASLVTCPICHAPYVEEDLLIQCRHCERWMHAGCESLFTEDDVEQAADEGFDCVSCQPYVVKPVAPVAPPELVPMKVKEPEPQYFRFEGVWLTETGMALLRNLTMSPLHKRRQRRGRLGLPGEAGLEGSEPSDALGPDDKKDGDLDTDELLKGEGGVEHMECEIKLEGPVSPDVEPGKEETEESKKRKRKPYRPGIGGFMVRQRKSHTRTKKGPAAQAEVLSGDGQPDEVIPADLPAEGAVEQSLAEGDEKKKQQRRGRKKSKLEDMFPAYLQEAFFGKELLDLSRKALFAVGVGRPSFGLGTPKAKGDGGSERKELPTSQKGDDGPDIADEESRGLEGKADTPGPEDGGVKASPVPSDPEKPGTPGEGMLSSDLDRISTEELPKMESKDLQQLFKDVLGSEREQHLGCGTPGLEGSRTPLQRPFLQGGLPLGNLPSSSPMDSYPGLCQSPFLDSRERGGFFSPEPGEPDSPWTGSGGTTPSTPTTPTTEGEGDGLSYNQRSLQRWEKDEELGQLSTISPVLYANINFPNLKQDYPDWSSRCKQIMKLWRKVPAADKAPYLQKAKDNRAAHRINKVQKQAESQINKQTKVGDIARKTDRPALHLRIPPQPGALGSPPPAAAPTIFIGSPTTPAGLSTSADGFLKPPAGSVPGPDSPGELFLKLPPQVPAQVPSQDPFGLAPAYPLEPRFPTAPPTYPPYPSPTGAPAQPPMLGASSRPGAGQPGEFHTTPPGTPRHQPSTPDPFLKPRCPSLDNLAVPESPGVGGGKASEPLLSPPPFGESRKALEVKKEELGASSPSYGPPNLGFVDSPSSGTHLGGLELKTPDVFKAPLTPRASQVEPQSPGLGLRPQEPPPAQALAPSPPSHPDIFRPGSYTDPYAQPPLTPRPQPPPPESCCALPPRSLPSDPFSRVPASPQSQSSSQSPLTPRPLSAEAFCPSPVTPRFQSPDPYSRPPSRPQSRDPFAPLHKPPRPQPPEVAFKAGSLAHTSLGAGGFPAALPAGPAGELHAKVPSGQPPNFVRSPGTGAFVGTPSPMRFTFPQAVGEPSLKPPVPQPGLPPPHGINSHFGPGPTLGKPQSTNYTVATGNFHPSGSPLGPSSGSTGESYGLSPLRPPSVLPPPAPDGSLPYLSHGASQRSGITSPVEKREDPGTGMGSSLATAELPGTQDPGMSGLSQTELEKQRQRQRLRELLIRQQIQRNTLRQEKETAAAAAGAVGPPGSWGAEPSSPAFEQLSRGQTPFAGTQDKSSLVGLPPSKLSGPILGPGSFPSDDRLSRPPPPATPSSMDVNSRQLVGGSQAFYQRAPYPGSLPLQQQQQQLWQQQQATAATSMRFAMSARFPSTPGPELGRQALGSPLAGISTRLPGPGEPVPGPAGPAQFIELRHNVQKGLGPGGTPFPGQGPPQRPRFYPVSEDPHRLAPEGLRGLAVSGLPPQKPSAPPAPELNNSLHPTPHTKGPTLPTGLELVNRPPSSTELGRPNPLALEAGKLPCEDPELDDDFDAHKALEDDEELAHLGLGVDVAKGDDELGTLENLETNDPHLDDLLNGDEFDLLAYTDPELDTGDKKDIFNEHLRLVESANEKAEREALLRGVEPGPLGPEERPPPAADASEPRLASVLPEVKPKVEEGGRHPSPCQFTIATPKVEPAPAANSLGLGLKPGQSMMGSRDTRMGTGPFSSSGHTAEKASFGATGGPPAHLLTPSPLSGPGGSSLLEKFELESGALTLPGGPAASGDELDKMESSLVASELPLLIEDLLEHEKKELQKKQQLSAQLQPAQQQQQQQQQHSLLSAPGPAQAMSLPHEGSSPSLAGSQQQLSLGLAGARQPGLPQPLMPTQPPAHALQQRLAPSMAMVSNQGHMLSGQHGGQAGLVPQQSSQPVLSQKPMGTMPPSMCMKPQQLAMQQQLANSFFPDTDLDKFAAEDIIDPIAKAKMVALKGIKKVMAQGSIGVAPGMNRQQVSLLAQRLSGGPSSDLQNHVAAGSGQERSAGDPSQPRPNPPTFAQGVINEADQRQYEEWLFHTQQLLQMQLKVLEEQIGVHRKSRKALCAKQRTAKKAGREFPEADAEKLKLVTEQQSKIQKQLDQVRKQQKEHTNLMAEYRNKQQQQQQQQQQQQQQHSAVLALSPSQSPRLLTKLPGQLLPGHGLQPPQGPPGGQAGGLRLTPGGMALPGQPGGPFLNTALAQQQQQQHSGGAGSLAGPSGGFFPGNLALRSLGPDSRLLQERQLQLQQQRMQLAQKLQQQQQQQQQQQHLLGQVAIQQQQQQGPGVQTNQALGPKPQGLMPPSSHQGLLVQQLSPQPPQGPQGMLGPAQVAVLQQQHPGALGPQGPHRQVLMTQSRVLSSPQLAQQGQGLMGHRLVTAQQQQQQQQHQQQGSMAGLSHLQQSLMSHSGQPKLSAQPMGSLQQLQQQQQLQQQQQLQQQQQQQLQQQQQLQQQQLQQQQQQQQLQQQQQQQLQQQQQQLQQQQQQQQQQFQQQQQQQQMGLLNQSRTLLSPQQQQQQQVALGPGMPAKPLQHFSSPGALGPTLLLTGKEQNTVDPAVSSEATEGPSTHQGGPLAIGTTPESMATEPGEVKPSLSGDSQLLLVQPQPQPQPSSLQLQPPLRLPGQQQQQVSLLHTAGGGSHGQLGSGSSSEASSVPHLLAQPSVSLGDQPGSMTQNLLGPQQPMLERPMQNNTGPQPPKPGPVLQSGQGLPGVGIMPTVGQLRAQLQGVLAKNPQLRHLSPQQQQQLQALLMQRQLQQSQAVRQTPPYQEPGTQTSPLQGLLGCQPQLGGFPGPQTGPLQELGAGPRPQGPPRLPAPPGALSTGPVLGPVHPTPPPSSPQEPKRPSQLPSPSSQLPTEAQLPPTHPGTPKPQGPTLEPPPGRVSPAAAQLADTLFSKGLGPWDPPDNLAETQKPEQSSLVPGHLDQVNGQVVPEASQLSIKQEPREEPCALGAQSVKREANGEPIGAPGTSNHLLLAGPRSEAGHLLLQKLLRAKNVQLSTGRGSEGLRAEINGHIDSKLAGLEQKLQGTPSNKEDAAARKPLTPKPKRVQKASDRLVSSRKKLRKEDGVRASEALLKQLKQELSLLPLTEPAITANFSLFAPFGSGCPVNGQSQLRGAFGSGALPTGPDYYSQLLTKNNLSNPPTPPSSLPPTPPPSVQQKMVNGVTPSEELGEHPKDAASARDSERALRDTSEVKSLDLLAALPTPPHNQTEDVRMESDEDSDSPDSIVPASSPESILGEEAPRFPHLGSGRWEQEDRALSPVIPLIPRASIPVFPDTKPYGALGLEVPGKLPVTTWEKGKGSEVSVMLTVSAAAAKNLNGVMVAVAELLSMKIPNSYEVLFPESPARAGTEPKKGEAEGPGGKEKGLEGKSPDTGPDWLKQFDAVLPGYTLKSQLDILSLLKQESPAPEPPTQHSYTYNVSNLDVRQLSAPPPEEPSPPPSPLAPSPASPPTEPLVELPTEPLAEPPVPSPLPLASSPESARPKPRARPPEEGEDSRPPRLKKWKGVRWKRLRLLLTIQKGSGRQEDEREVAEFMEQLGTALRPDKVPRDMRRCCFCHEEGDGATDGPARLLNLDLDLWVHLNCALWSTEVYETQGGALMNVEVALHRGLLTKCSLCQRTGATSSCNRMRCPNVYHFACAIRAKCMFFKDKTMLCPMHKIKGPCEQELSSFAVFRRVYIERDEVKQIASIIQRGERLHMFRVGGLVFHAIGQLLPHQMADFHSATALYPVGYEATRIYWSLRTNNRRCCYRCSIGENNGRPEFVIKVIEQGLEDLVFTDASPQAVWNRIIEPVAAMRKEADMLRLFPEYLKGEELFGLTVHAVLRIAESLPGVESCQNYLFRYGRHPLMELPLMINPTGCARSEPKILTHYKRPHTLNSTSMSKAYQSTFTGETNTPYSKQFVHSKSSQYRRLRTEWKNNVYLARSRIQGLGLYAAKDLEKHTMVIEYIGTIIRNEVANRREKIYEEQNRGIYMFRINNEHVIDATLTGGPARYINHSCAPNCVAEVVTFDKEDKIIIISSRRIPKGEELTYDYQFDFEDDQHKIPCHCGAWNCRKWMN
UniProt P04150: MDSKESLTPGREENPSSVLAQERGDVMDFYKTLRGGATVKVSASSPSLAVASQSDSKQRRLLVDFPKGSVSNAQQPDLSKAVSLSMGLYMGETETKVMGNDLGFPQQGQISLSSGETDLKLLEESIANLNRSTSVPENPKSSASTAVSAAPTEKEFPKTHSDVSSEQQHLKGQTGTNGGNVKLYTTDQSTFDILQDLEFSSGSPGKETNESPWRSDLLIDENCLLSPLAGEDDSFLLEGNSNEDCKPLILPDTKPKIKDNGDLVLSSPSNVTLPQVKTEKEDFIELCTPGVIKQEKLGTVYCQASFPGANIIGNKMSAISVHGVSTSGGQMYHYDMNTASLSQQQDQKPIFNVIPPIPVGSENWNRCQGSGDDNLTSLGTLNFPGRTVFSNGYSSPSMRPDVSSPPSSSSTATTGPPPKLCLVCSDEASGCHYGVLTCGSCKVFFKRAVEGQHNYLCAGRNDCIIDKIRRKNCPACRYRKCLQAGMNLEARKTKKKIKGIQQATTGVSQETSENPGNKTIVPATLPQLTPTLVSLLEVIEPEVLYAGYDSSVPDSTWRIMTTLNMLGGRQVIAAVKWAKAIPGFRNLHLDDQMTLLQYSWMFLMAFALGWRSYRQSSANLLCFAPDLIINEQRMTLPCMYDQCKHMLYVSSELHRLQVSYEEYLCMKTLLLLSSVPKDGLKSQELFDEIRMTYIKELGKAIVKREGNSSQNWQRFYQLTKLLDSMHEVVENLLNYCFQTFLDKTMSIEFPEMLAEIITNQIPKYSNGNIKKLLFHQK

No constants are given. Whether binding was seen depends on the method and setting. Binding seen in cells or lysates may run through a third protein. Some entries that bind do so weakly or less than the wild type.

For the substance “glucocorticoid receptor (from UniProt P04150 1-777)”, the binding entry is “binds weakly” in assay [1], “binds” in assay [2] and “binds” in assay [3].
